Changes are numbered by the printed parent chain. These are yes or no findings as the source states them, for the method shown. For part of these data: Binding can be weak; no strength is given. For part of these data: Tags and fused reporters may be left off the sequences shown.
Columns and labels:
[1] = biological target: T1, GST-Rar1 W217T (Arabidopsis thaliana) (UniProt Q9SE33); assay: pull-down; GST-Rar1 constructs as bait, one partner alone (Hsp90 or Sgt1); recombinant proteins; conditions in the Supplemental Information; both purified
T1 sequence: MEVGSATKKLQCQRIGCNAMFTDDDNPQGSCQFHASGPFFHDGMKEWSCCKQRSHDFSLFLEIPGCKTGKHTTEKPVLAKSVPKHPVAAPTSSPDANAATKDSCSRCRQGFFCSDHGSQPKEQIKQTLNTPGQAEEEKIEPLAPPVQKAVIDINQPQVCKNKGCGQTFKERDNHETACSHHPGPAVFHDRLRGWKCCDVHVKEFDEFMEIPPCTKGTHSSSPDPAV

[2] = biological target: T2, GST-Rar1 K45E (Arabidopsis thaliana) (UniProt Q9SE33); assay: pull-down; GST-Rar1 constructs as bait, Hsp90 and Sgt1 both present; both purified
T2 sequence: T1 sequence with K45E, T217W

[3] = biological target: GST-Rar1 with a mutation of Glu170 (Arabidopsis thaliana) (UniProt Q9SE33); assay: pull-down; GST-Rar1 constructs as bait, one partner alone (Hsp90 or Sgt1); recombinant proteins; conditions in the Supplemental Information; both purified

Substance	binding [1]	binding [2]	binding [3]
Sgt1 (Arabidopsis)	no binding	binds	–
Hsp90 (from UniProt Q7XJ80 1-700)	–	–	binds

From publication PMC2935968
